Results published in patent US20100167933A1, “Piperazine Compounds With Herbicidal Action” (priority 2007, published 2010).
Some results were stated once for a whole list of compounds, not compound by compound.

System: SETFA (Setaria faberi, giant foxtail)
Assay: greenhouse experiment, pre-emergence herbicidal activity against SETFA
Format: in vivo
Conditions: pre-emergence method, application rate 0.5 kg/ha; scale from 0 to 100

CN1C(=O)C(Cc2ccccc2)(C(=O)C(F)(F)F)N(C)C(=O)/C1=C/c1ccccc1C#N (stereo not shown) [Example 4, 2-[5-Trifluoroacetyl-5-benzyl-1,4-dimethyl-3,6-dioxopiperazin-(Z)-2-ylidenemethyl]benzonitrile]
herbicidal activity against SETFA: good (A good herbicidal activity is given at values of at least 70)
